In PubChem BioAssay AID248 (DTP/NCI, 2004):
The list is a part of this screen's results and no random one: its compounds were picked by chemical class. Other doses and runs of a compound may be missing. T/C is the treated group as % of the vehicle group. Where survival is the endpoint, this PubChem deposit counts one and a half times the control or more as active, and values a quarter to a half above the control carry no call in these data; other NCI protocols may use other cut-offs. Some T/C values are marked as having no survivor count here; that says nothing about deaths at the dose. Schedule codes are those of the source, read here as Q, the interval in days (D) or hours (H), X, the number of doses. Some doses were run more than once; their values stand side by side, smallest first. Some schedule codes hold Z or #, which are not explained here.

System: L1210 leukemia ip in BDF1 mice, survival T/C
Test: NCI In Vivo Anticancer Drug Screen. Data for tumor model L1210 Leukemia (intraperitoneal) in B6D2F1 (BDF1) mice
Conditions: T/C endpoint: mean survival time, higher T/C = longer survival

## O=P(Cl)(N(CCCl)CCCl)N(CCCl)CCCl
dose: 6.25 mg/kg/injection, schedule: Q04DX003 (ip), vehicle: DMSO
  T/C: 109 % of control [survivor count not shown]
dose: 12.5 mg/kg/injection, schedule: Q04DX003 (ip), vehicle: DMSO
  T/C: 121 % of control [survivor count not shown]
dose: 25.0 mg/kg/injection, schedule: Q01DX001 (ip), vehicle: DMSO
  T/C: 126 % of control [survivor count not shown]
dose: 25.0 mg/kg/injection, schedule: Q04DX003 (ip), vehicle: DMSO
  T/C: 125 % of control [survivor count not shown]
dose: 50.0 mg/kg/injection, schedule: Q01DX001 (ip), vehicle: DMSO
  T/C: 128 % of control [survivor count not shown]
dose: 100.0 mg/kg/injection, schedule: Q01DX001 (ip), vehicle: DMSO
  T/C: 141 [survivor count not shown] and 147 % of control [survivor count not shown]

## CN(C)P(=O)(Cl)N(C)C
dose: 12.5 mg/kg/injection, schedule: Q04DX003 (ip), vehicle: saline
  T/C: 106 % of control [survivor count not shown]
dose: 25.0 mg/kg/injection, schedule: Q04DX003 (ip), vehicle: saline
  T/C: 107 % of control [survivor count not shown]
dose: 50.0 mg/kg/injection, schedule: Q04DX003 (ip), vehicle: saline
  T/C: 96 % of control [survivor count not shown]

## COC(=O)CCc1ccc(CN(CCCl)CCCl)cc1
dose: 0.27 mg/kg/injection, schedule: Q01DX Z (ip), vehicle: methylcellulose (MC)
  T/C: 114 % of control [survivor count not shown]
dose: 0.4 mg/kg/injection, schedule: Q01DX Z (ip), vehicle: carboxymethylcellulose (CMC)
  T/C: 100 % of control [survivor count not shown]
dose: 0.4 mg/kg/injection, schedule: Q01DX Z (ip), vehicle: methylcellulose (MC)
  T/C: 125 % of control [survivor count not shown]
dose: 0.4 mg/kg/injection, schedule: Q01DX Z (ip), vehicle: saline
  T/C: 99 % of control [survivor count not shown]
dose: 0.6 mg/kg/injection, schedule: Q01DX Z (ip), vehicle: methylcellulose (MC)
  T/C: 128 [survivor count not shown] and 130 % of control [survivor count not shown]
dose: 0.75 mg/kg/injection, schedule: Q01DX009 (ip), vehicle: saline
  T/C: 101 % of control [survivor count not shown]
dose: 1.0 mg/kg/injection, schedule: Q01DX Z (ip), vehicle: carboxymethylcellulose (CMC)
  T/C: 103 % of control [survivor count not shown]
dose: 1.0 mg/kg/injection, schedule: Q01DX Z (ip), vehicle: methylcellulose (MC)
  T/C: 135 [survivor count not shown] and 144 % of control [survivor count not shown]
dose: 1.0 mg/kg/injection, schedule: Q01DX Z (ip), vehicle: saline
  T/C: 100 [survivor count not shown], 109 [survivor count not shown], 113 [survivor count not shown], 129 % of control [survivor count not shown]
dose: 1.5 mg/kg/injection, schedule: Q01DX009 (ip), vehicle: saline
  T/C: 101 % of control [survivor count not shown]
dose: 1.56 mg/kg/injection, schedule: Q01DX009 (ip), vehicle: saline
  T/C: 123 % of control [survivor count not shown]
dose: 1.56 mg/kg/injection, schedule: Q04DX003 (ip), vehicle: saline
  T/C: 110 % of control [survivor count not shown]
dose: 2.0 mg/kg/injection, schedule: Q01DX Z (ip), vehicle: carboxymethylcellulose (CMC)
  T/C: 113 % of control [survivor count not shown]
dose: 2.0 mg/kg/injection, schedule: Q01DX Z (ip), vehicle: methylcellulose (MC)
  T/C: 139 [survivor count not shown] and 194 % of control [survivor count not shown]
dose: 2.0 mg/kg/injection, schedule: Q01DX Z (ip), vehicle: saline
  T/C: 107 [survivor count not shown], 121 [survivor count not shown], 123 % of control [survivor count not shown]
dose: 3.0 mg/kg/injection, schedule: Q01DX009 (ip), vehicle: saline
  T/C: 101 % of control [survivor count not shown]
dose: 3.0 mg/kg/injection, schedule: Q01DX Z (ip), vehicle: carboxymethylcellulose (CMC)
  T/C: 113 % of control [survivor count not shown]
dose: 3.0 mg/kg/injection, schedule: Q01DX Z (ip), vehicle: methylcellulose (MC)
  T/C: 145 [survivor count not shown] and 155 % of control [survivor count not shown]
dose: 3.0 mg/kg/injection, schedule: Q01DX Z (ip), vehicle: saline
  T/C: 102 [survivor count not shown], 113 [survivor count not shown], 126 % of control [survivor count not shown]
dose: 3.12 mg/kg/injection, schedule: Q01DX009 (ip), vehicle: saline
  T/C: 118 % of control [survivor count not shown]
dose: 3.12 mg/kg/injection, schedule: Q04DX003 (ip), vehicle: saline
  T/C: 114 % of control [survivor count not shown]
dose: 4.0 mg/kg/injection, schedule: Q01DX Z (ip), vehicle: carboxymethylcellulose (CMC)
  T/C: 119 [survivor count not shown] and 124 % of control [survivor count not shown]
dose: 4.0 mg/kg/injection, schedule: Q01DX Z (ip), vehicle: saline
  T/C: 140 % of control [survivor count not shown]
dose: 4.5 mg/kg/injection, schedule: Q01DX Z (ip), vehicle: saline
  T/C: 123 % of control [survivor count not shown]
dose: 6.0 mg/kg/injection, schedule: Q01DX Z (ip), vehicle: carboxymethylcellulose (CMC)
  T/C: 121 % of control [survivor count not shown]
dose: 6.2 mg/kg/injection, schedule: Q01DX001 (ip), vehicle: carboxymethylcellulose (CMC)
  T/C: 111 % of control [survivor count not shown]
dose: 6.25 mg/kg/injection, schedule: Q04DX003 (ip), vehicle: saline
  T/C: 123 % of control [survivor count not shown]
dose: 9.0 mg/kg/injection, schedule: Q01DX Z (ip), vehicle: carboxymethylcellulose (CMC)
  T/C: 124 % of control [survivor count not shown]

## O=C1C(SCCCl)=C(SCCCl)C(=O)c2[nH]cnc21
dose: 50.0 mg/kg/injection, schedule: Q01DX001 (ip), vehicle: carboxymethylcellulose (CMC)
  T/C: 107 % of control [survivor count not shown]
dose: 100.0 mg/kg/injection, schedule: Q01DX001 (ip), vehicle: carboxymethylcellulose (CMC)
  T/C: 107 % of control [survivor count not shown]

## CC1(C)OCC(COP(N)(=O)N(CCCl)CCCl)O1 (configuration not stated)
dose: 100.0 mg/kg/injection, schedule: Q08DX002 (ip), vehicle: saline
  T/C: 92 % of control [survivor count not shown]
dose: 125.0 mg/kg/injection, schedule: Q01DX001 (ip), vehicle: saline
  T/C: 103 % of control [survivor count not shown]
dose: 200.0 mg/kg/injection, schedule: Q08DX002 (ip), vehicle: saline
  T/C: 87 % of control [survivor count not shown]
dose: 250.0 mg/kg/injection, schedule: Q01DX001 (ip), vehicle: saline
  T/C: 106 % of control [survivor count not shown]
dose: 400.0 mg/kg/injection, schedule: Q08DX002 (ip), vehicle: saline
  T/C: 103 % of control [survivor count not shown]
dose: 500.0 mg/kg/injection, schedule: Q01DX001 (ip), vehicle: saline
  T/C: 101 % of control [survivor count not shown]
dose: 800.0 mg/kg/injection, schedule: Q08DX002 (ip), vehicle: saline
  T/C: 107 % of control [survivor count not shown]
dose: 1000.0 mg/kg/injection, schedule: Q01DX001 (ip), vehicle: saline
  T/C: 108 % of control [survivor count not shown]
